The structures appear in SMILES notation. No dose or concentration is given here for some results.

Data set [1] relates to A549, H1299, H1975 human lung cancer lines and BEAS-2B normal cell line, each cultured alone. The experiment in a line: VOCs headspace analysis (ITEX GC-MS) of mono-culture groups (Format-1), bulk cell samples 1×10^4 cells. In kind it is cell-based. Also on record: key to Category (VOC increased or decreased relative to the control): ↑: Increased; ↓: decreased; ↑*: <0.01; ↑**: <0.001. As to conditions: for VOC level in headspace, area under curve (AUC) normalized by STD AUC: bulk 1 × 10^4 cell; for Category (VOC increased or decreased relative to the control): mono-culture groups (Format-1), 48 h incubation, averaged peak area (n = 3).

Data set [2] concerns different-cell pairs of BEAS-2B, A549, H1299, H1975 without physical contact under a mutual headspace. Description: VOCs headspace analysis (ITEX GC-MS) of different-cell pair co-culture headspace groups (Format-3), bulk cell samples. Also on record: key to Category (VOC increased or decreased relative to the control): ↑: Increased; ↓: decreased; ↑*: <0.01; ↑**: <0.001. The data set is classed as cell-based, human. The conditions noted are these: for VOC level in headspace, area under curve (AUC) normalized by STD AUC: bulk 1 × 10^4 cell; for Category (VOC increased or decreased relative to the control): different-cell pair co-culture headspace (Format-3), averaged peak area (n = 3).

Turning to `CCOC(=O)C1Oc2ccccc2O1` [VOC42], the “VOC level in headspace, area under curve (AUC) normalized by STD AUC” value (shortened to “VOC level … (AUC) normalized by STD AUC”) in data set [1] (A (BEAS-2B) mono-culture) worked out at 2.984; in data set [1] (B (A549) mono-culture), 1.403; in data set [1] (C (H1299) mono-culture), 1.699; in data set [1] (D (H1975) mono-culture), 0; in data set [2] (A + B (BEAS-2B + A549)), 5.385; in data set [2] (A + C (BEAS-2B + H1299)) it was 4.17. Also, the “VOC level … (AUC) normalized by STD AUC” value in data set [2] (A + D (BEAS-2B + H1975)) was 0; in data set [2] (B + C (A549 + H1299)) it was 5.338; in data set [2] (B + D (A549 + H1975)) it was 0; in data set [2] (C + D (H1299 + H1975)), 0.

In the case of `C=CCOCCC` [VOC66], the “VOC level … (AUC) normalized by STD AUC” value worked out at 5.989 in data set [1] (A (BEAS-2B) mono-culture); 0 in data set [1] (B (A549) mono-culture); 10.089 in data set [1] (C (H1299) mono-culture); 0 in data set [1] (D (H1975) mono-culture); 6.616 in data set [2] (A + B (BEAS-2B + A549)); 4.601 in data set [2] (A + C (BEAS-2B + H1299)). The “VOC level … (AUC) normalized by STD AUC” value in data set [2] (A + D (BEAS-2B + H1975)) is listed as 0; in data set [2] (B + C (A549 + H1299)), 1.264; in data set [2] (B + D (A549 + H1975)) it was 0.9916; in data set [2] (C + D (H1299 + H1975)), 0.

With `CNCCS(=O)(=O)O` [VOC84], the “VOC level … (AUC) normalized by STD AUC” value in data set [1] (A (BEAS-2B) mono-culture) was found to be 0; in data set [1] (B (A549) mono-culture), 0; in data set [1] (C (H1299) mono-culture), 5.2536; in data set [1] (D (H1975) mono-culture), 0; in data set [2] (A + B (BEAS-2B + A549)), 0; in data set [2] (A + C (BEAS-2B + H1299)), 2.318. In addition, the “VOC level … (AUC) normalized by STD AUC” value is 0 in data set [2] (A + D (BEAS-2B + H1975)), 4.427 in data set [2] (B + C (A549 + H1299)), 0 in data set [2] (B + D (A549 + H1975)) and 3.166 in data set [2] (C + D (H1299 + H1975)).

With `CC/C=C\CCOC(=O)CC` [VOC38], the “VOC level … (AUC) normalized by STD AUC” value was determined as 0 in data set [1] (A (BEAS-2B) mono-culture); 1.564 in data set [1] (B (A549) mono-culture); 6.18 in data set [1] (C (H1299) mono-culture); 5.232 in data set [1] (D (H1975) mono-culture); 0 in data set [2] (A + B (BEAS-2B + A549)); 6.896 in data set [2] (A + C (BEAS-2B + H1299)). The “VOC level … (AUC) normalized by STD AUC” value in data set [2] (A + D (BEAS-2B + H1975)) is recorded as 6.933; in data set [2] (B + C (A549 + H1299)), 0; in data set [2] (B + D (A549 + H1975)), 4.688; in data set [2] (C + D (H1299 + H1975)), 7.491.

With `COC(=O)[C@H](C)N` [VOC79], the “VOC level … (AUC) normalized by STD AUC” value in data set [1] (A (BEAS-2B) mono-culture) came to 0; in data set [1] (B (A549) mono-culture), 0; in data set [1] (C (H1299) mono-culture) it was 0; in data set [1] (D (H1975) mono-culture), 8.41; in data set [2] (A + B (BEAS-2B + A549)), 0; in data set [2] (A + C (BEAS-2B + H1299)) it was 0. Moreover, the “VOC level … (AUC) normalized by STD AUC” value is listed as 6.257 in data set [2] (A + D (BEAS-2B + H1975)), 0 in data set [2] (B + C (A549 + H1299)), 3.831 in data set [2] (B + D (A549 + H1975)) and 0 in data set [2] (C + D (H1299 + H1975)).

On to `CC1(C)CCO1` [VOC76], for which the “VOC level … (AUC) normalized by STD AUC” value in data set [1] (A (BEAS-2B) mono-culture) is reported as 0; in data set [1] (B (A549) mono-culture), 0; in data set [1] (C (H1299) mono-culture), 4.9305; in data set [1] (D (H1975) mono-culture) it was 0; in data set [2] (A + B (BEAS-2B + A549)), 0; in data set [2] (A + C (BEAS-2B + H1299)), 5.974. Further, the “VOC level … (AUC) normalized by STD AUC” value in data set [2] (A + D (BEAS-2B + H1975)) stood at 0; in data set [2] (B + C (A549 + H1299)), 2.377; in data set [2] (B + D (A549 + H1975)) it was 0; in data set [2] (C + D (H1299 + H1975)), 0.

With `CC(C)CCCC(=O)c1ccccc1` [VOC48], the “VOC level … (AUC) normalized by STD AUC” value in data set [1] (A (BEAS-2B) mono-culture) is given as 0; in data set [1] (B (A549) mono-culture), 7.574; in data set [1] (C (H1299) mono-culture) it was 0; in data set [1] (D (H1975) mono-culture) it was 0; in data set [2] (A + B (BEAS-2B + A549)), 5.71; in data set [2] (A + C (BEAS-2B + H1299)), 0. For the same compound, the “VOC level … (AUC) normalized by STD AUC” value is given as 0 in data set [2] (A + D (BEAS-2B + H1975)), 1.044 in data set [2] (B + C (A549 + H1299)), 0.1633 in data set [2] (B + D (A549 + H1975)) and 0 in data set [2] (C + D (H1299 + H1975)).

Consider `CCCC(C)CCC` [VOC26], for which the “VOC level … (AUC) normalized by STD AUC” value in data set [1] (A (BEAS-2B) mono-culture) stood at 0; in data set [1] (B (A549) mono-culture), 0; in data set [1] (C (H1299) mono-culture), 0; in data set [1] (D (H1975) mono-culture), 4.215; in data set [2] (A + B (BEAS-2B + A549)), 0; in data set [2] (A + C (BEAS-2B + H1299)) it was 0. Besides, the “VOC level … (AUC) normalized by STD AUC” value is recorded as 0 in data set [2] (A + D (BEAS-2B + H1975)), 0 in data set [2] (B + C (A549 + H1299)), 6.901 in data set [2] (B + D (A549 + H1975)) and 0 in data set [2] (C + D (H1299 + H1975)).

With `CC(C)(C)c1ccc(O)c(C(C)(C)C)c1` [2,4-Di-tert-butylphenol], the “Category (VOC increased or decreased relative to the control)” value in data set [1] and in data set [2] (24 h) was “↑” in each case.

Consider `CCCCC(C)(CCC)CCCC` [VOC24], for which the “VOC level … (AUC) normalized by STD AUC” value in data set [1] (A (BEAS-2B) mono-culture) amounted to 1.728; in data set [1] (B (A549) mono-culture) it was 0; in data set [1] (C (H1299) mono-culture) it was 0; in data set [1] (D (H1975) mono-culture), 8.902; in data set [2] (A + B (BEAS-2B + A549)) it was 3.154; in data set [2] (A + C (BEAS-2B + H1299)) it was 4.104. Moreover, the “VOC level … (AUC) normalized by STD AUC” value in data set [2] (A + D (BEAS-2B + H1975)) amounted to 9.877; in data set [2] (B + C (A549 + H1299)), 0; in data set [2] (B + D (A549 + H1975)) it was 8.236; in data set [2] (C + D (H1299 + H1975)) it was 2.95.

Take `C=CC(C)=O` [Methyl vinyl ketone]: the figures for the “Category (VOC increased or decreased relative to the control)” value in data set [1] and in data set [2] (72 h) were “↑* (↑*: <0.01)” and “↑”, respectively.

As to `O=COCC(=O)c1ccccc1` [VOC39], the “VOC level … (AUC) normalized by STD AUC” value is 2.851 in data set [1] (A (BEAS-2B) mono-culture); 0 in data set [1] (B (A549) mono-culture); 0 in data set [1] (C (H1299) mono-culture); 0 in data set [1] (D (H1975) mono-culture); 2.841 in data set [2] (A + C (BEAS-2B + H1299)); 3.772 in data set [2] (A + D (BEAS-2B + H1975)). Further, the “VOC level … (AUC) normalized by STD AUC” value in data set [2] (B + C (A549 + H1299)), in data set [2] (B + D (A549 + H1975)) and in data set [2] (C + D (H1299 + H1975)) was 0 throughout.

In the case of `CCCCC(O)CCC` (centres unmarked) [VOC88], the “VOC level … (AUC) normalized by STD AUC” value in data set [1] (A (BEAS-2B) mono-culture) was 0; in data set [1] (B (A549) mono-culture) it was 3.18; in data set [1] (C (H1299) mono-culture) it was 0; in data set [1] (D (H1975) mono-culture), 0; in data set [2] (A + B (BEAS-2B + A549)) it was 3.088; in data set [2] (A + C (BEAS-2B + H1299)), 0. Besides, the “VOC level … (AUC) normalized by STD AUC” value in data set [2] (A + D (BEAS-2B + H1975)) turned out to be 0; in data set [2] (B + C (A549 + H1299)) it was 1.643; in data set [2] (B + D (A549 + H1975)), 1.099; in data set [2] (C + D (H1299 + H1975)), 0.

Consider `CCCCCCC(C)CC(C)CCC` (centres unmarked) [VOC11], for which the “VOC level … (AUC) normalized by STD AUC” value came out at 9.142 in data set [1] (A (BEAS-2B) mono-culture); 0 in data set [1] (B (A549) mono-culture); 0 in data set [1] (C (H1299) mono-culture); 8.847 in data set [1] (D (H1975) mono-culture); 2.169 in data set [2] (A + B (BEAS-2B + A549)); 3.956 in data set [2] (A + C (BEAS-2B + H1299)). In addition, the “VOC level … (AUC) normalized by STD AUC” value was determined as 0 in data set [2] (A + D (BEAS-2B + H1975)), 0 in data set [2] (B + C (A549 + H1299)), 5.827 in data set [2] (B + D (A549 + H1975)) and 0 in data set [2] (C + D (H1299 + H1975)).

Turning to `CCCC(O)C(CC)COC(=O)C(C)C` (centres unmarked) [Isobutyric acid 2-ethyl-3-hydroxyhexyl ester], the results for the “Category (VOC increased or decreased relative to the control)” value in data set [1] and in data set [2] (72 h) were “↑” and “↓”, respectively.

The record behind these values is US20260079169A1, “VOLATILE ORGANIC COMPOUNDS AS MARKERS FOR CELLULAR COMMUNICATION” (Technion Research and Development Foundation Limited, priority 2020, published 2026).
